{"source": "PubChem BioAssay AID2523", "about": "(NMMLSC, 2010)", "note": "This is one part of the list.", "data": [{"test": "reduced mouse 2C T cell binding to pMHC/ICAM-1 vesicles – MLPCN validation set, flow cytometry, LFA-1/ICAM-1 modulator project, pilot screen (AID 2523)", "conditions": "2C mouse CD8+ T cells, measured here: CD8+/vesicle+ event percentage, at 7 µM, stronger effect = lower value", "units": {"double positive events": "%"}, "values": [{"smiles": "CN(C(=O)Cc1ccc(Cl)c(Cl)c1)[C@@H]1CCCC[C@H]1N1CCCC1", "double positive events": 62.6}]}]}
